According to publication doi:10.1101/2021.02.16.431372:
No constants are given. Whether binding was seen depends on the method and setting. Binding seen in cells or lysates may run through a third protein. A result given as binding can be weak or reduced; the word gives no strength. Where a sequence is shown, tags or fusion partners need not be part of it.

Molecular target: T1, voltage dependent anion channel 2 (VDAC2) (pig (endogenous in pig sperm)) (UniProt Q9MZ15)
T1 sequence: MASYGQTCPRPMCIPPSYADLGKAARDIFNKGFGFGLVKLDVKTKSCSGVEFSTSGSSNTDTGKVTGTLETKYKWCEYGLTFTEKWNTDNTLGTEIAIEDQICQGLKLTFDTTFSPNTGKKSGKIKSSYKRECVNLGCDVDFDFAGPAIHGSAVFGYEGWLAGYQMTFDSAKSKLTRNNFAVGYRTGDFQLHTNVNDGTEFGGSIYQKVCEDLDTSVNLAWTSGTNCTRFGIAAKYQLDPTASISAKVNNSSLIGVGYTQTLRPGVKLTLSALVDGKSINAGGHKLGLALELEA
Assay: cross-linking

Question: “glycerol kinase (GK) (pig (endogenous in pig sperm))” was tested. Which binding did it give?
Answer: The binding was “binds”.
